Assay results from paper PMC8016872.
Results are given in words; binding and its absence hold for the method and conditions named. Binding seen in cells or lysates may run through a third protein. Some entries that bind do so weakly or less than the wild type.

Amino acid sequences for entries named in this document (tags omitted).
UniProt Q08211: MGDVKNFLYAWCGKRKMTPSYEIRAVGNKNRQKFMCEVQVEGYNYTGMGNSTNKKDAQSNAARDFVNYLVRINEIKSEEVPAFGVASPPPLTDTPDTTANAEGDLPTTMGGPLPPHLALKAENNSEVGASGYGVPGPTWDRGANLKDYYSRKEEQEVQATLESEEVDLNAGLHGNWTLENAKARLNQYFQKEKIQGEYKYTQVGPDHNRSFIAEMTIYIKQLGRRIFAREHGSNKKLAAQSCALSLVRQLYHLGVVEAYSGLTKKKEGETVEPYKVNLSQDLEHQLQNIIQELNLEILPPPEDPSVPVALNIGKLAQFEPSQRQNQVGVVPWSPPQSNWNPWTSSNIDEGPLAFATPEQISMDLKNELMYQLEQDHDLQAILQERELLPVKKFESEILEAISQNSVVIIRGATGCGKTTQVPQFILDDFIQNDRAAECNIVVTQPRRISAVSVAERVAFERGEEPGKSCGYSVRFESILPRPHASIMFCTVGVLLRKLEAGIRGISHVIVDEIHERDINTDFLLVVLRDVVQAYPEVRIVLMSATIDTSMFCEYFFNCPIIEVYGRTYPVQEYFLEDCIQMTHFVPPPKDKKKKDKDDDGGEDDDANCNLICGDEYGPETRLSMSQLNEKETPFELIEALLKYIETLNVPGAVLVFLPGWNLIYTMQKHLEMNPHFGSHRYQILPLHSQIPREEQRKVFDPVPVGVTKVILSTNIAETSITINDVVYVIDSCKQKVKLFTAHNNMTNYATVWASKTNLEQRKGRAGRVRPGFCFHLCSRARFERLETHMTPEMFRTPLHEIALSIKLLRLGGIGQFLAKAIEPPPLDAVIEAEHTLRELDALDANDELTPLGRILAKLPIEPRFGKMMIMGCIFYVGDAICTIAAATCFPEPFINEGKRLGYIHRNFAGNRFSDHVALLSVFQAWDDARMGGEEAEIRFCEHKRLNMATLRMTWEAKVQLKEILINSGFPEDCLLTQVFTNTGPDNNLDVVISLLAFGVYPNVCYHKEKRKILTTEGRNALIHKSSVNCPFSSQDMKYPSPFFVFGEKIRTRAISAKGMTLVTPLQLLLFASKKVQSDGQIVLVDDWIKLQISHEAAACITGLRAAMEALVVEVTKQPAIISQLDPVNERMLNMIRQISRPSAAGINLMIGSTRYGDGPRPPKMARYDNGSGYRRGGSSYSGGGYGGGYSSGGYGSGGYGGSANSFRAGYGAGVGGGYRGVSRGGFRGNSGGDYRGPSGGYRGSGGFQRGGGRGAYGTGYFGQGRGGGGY
UniProt P17844: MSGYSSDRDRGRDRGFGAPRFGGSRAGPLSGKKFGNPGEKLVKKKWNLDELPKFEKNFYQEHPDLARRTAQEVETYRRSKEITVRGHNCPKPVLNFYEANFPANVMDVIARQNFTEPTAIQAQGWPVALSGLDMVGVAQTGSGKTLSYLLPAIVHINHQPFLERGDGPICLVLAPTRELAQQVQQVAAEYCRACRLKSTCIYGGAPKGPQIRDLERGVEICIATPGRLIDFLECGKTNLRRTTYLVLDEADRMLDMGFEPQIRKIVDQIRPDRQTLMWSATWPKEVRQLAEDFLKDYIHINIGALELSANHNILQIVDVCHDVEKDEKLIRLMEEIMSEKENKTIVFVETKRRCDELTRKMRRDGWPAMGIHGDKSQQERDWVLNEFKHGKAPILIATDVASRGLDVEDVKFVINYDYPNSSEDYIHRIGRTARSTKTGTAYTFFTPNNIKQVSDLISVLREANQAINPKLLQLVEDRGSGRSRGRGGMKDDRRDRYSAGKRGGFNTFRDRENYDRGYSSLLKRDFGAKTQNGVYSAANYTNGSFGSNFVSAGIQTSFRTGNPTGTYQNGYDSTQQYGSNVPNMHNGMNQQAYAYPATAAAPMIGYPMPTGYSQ
UniProt P06748: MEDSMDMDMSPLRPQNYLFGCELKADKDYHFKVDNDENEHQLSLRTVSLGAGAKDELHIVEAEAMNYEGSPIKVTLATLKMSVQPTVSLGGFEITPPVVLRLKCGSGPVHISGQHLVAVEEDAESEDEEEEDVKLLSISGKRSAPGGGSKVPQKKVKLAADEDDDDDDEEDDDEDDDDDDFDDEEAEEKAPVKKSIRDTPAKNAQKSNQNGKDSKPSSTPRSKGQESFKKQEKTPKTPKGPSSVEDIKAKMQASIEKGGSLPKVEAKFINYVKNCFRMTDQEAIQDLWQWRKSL
UniProt P38936: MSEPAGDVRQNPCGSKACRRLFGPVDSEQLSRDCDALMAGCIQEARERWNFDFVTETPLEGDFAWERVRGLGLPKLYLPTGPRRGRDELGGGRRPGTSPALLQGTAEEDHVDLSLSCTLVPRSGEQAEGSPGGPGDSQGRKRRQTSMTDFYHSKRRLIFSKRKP

Assays:
FLAG-tagged DHX9 = FLAG-tagged DHX9 (UniProt Q08211); experiment: co-IP; H1299 cells transfected with a FLAG-tagged DHX9 expression vector; immunoprecipitation with a FLAG-specific antibody; immunoblot for endogenous NPM1
[1] = biological target: DDX5 (p68) (human (endogenous in H1299 or A549)) (UniProt P17844); experiment: co-IP; endogenous proteins; cells lysed in RIPA buffer, pre-cleared lysates immunoprecipitated with the indicated antibodies 3 h at 4 °C, Protein G beads overnight, six washes (50 mM Tris-HCl pH 7.5, 150 mM NaCl, 1 mM MgCl2, 0.05% IGEPAL CA-630), immunoblot; reverse IP (Fig. 6d, 7c); Drosha/p21 in H1299 and A549
[2] = biological target: DDX5 (p68) (human (endogenous in H1299 or A549)) (UniProt P17844); experiment: co-IP; co-IP with RNase A treatment (Fig. 6f); immunoblot
[3] = biological target: T1, Drosha (human (endogenous in H1299 and A549)) (UniProt Q9NRR4); experiment: co-IP; endogenous proteins; cells lysed in RIPA buffer, pre-cleared lysates immunoprecipitated with the indicated antibodies 3 h at 4 °C, Protein G beads overnight, six washes (50 mM Tris-HCl pH 7.5, 150 mM NaCl, 1 mM MgCl2, 0.05% IGEPAL CA-630), immunoblot; reverse IP (Fig. 6d, 7c); Drosha/p21 in H1299 and A549
T1 sequence: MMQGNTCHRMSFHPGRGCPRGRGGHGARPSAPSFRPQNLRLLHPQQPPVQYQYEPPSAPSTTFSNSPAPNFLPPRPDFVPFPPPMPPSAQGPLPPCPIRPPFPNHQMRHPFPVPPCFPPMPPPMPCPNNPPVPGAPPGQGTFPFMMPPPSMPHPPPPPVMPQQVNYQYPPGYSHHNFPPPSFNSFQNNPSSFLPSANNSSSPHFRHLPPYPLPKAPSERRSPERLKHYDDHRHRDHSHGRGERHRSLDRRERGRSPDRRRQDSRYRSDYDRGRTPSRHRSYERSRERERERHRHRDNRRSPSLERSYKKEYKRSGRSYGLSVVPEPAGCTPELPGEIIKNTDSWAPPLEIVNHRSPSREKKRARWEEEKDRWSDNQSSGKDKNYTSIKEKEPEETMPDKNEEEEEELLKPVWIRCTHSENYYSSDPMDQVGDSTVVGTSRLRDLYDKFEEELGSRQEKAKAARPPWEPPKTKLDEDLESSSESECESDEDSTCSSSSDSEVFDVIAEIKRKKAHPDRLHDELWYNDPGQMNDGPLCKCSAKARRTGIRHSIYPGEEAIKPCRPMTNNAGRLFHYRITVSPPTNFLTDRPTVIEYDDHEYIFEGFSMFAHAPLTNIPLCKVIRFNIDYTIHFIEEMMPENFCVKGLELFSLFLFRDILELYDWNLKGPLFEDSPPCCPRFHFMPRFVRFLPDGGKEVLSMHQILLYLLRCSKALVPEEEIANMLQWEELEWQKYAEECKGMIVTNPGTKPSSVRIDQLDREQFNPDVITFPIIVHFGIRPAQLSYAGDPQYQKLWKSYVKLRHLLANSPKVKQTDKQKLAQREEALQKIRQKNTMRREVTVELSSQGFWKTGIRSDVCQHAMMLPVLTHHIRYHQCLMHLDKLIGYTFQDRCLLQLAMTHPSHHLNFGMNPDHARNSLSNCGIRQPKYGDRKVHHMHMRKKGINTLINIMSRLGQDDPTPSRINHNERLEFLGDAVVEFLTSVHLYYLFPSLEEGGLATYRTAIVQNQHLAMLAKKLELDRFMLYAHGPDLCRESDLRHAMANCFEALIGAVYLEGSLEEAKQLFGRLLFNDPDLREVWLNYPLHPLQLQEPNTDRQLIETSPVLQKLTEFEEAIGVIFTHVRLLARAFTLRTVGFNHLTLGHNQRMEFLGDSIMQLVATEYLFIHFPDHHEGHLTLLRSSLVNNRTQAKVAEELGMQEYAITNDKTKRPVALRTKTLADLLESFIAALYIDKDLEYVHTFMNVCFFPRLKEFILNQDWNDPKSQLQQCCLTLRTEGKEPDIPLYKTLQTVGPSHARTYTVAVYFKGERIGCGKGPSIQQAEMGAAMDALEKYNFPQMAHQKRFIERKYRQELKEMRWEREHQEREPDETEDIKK

Substance	binding (FLAG-tagged DHX9)	binding [1]	binding [2]	binding [3]
NPM1 (from UniProt P06748 1-294)	binds	binds	no binding (condition: with RNase A treatment)	–
p21 (CDKN1A) (from UniProt P38936 1-164)	–	–	–	binds
